PubChem BioAssay AID1224828 – NIAID | 2016
This is one part, drawn at random, of about 17,000 reagents. 762 of them (4.5%) count as active. 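Active calls include both raised and lowered p65 entry, mostly lowered; wells with fewer than 50 cells lack a z-score.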 Raw values vary from plate to plate and are shown uncorrected. A number with no mark means an inactive call. Reagent sequences are not shown.

- Assay: 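Find genes required for NF-kappaB p65 moving into the nucleus after LPS in mouse macrophages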 (primary screen)
- Cells: mouse RAW264.7 G9 macrophage reporter cells (GFP-p65, Tnf promoter-mCherry)
- Knock-down reagent: siRNA pool against mouse genes, 100 nM
- Time to read-out: 2 days siRNA transfection, then 40 min LPS before fixation
- Treatment: LPS (Salmonella minnesota R595) at 10 ng/ml
- Measurement: 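Imaged p65 nuclear translocation ratio, normalised to the plate median, converted to robust z-scores and averaged across two replicates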
- Direction: p65 translocation robust z-score: higher = more nuclear NF-kappaB p65 after LPS than the plate median; nuclear/cytoplasmic p65 ratio: higher = more nuclear NF-kappaB p65
- Active means: 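Called active when z exceeds 3.3 or falls under -1.56 (median of Tlr4 controls), giving activity score of at least 50; no calls for control wells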
- Meaning of the calls: active = hit (p65 shift raised or lowered); inactive = no clear change

Cnpy2 (canopy FGF signaling regulator 2) | p65 translocation robust z-score = 0.4; nuclear/cytoplasmic p65 ratio, rep 1 = 1.61; nuclear/cytoplasmic p65 ratio, rep 2 = 1.54; low cell count flag = enough cells to score
Bcdin3d (BCDIN3 domain containing) | p65 translocation robust z-score = 1.06; nuclear/cytoplasmic p65 ratio, rep 1 = 1.42; nuclear/cytoplasmic p65 ratio, rep 2 = 1.4; low cell count flag = enough cells to score
4930599N23Rik (RIKEN cDNA 4930599N23 gene) | nuclear/cytoplasmic p65 ratio, rep 1 = 1.05; nuclear/cytoplasmic p65 ratio, rep 2 = 0.902; low cell count flag = fewer than 50 cells per well; well left out of scoring
Epm2aip1 (EPM2A interacting protein 1) | p65 translocation robust z-score = 0.65; nuclear/cytoplasmic p65 ratio, rep 1 = 1.63; nuclear/cytoplasmic p65 ratio, rep 2 = 1.61; low cell count flag = enough cells to score
Polr2d (polymerase (RNA) II (DNA directed) polypeptide D) | p65 translocation robust z-score = 1.08; nuclear/cytoplasmic p65 ratio, rep 1 = 1.47; nuclear/cytoplasmic p65 ratio, rep 2 = 2.08; low cell count flag = enough cells to score
Tmeff1 | nuclear/cytoplasmic p65 ratio, rep 1 = 1.41; nuclear/cytoplasmic p65 ratio, rep 2 = 1.4; low cell count flag = fewer than 50 cells per well; well left out of scoring
Taf4 (TATA-box binding protein associated factor 4) | p65 translocation robust z-score = -0.55; nuclear/cytoplasmic p65 ratio, rep 1 = 1.49; nuclear/cytoplasmic p65 ratio, rep 2 = 1.39; low cell count flag = enough cells to score
Or52u1 (olfactory receptor family 52 subfamily U member 1) | p65 translocation robust z-score = -1.23; nuclear/cytoplasmic p65 ratio, rep 1 = 1.27; nuclear/cytoplasmic p65 ratio, rep 2 = 1.13; low cell count flag = enough cells to score
Mkrn1 (makorin, ring finger protein, 1) | p65 translocation robust z-score = 1.05; nuclear/cytoplasmic p65 ratio, rep 1 = 1.86; nuclear/cytoplasmic p65 ratio, rep 2 = 1.83; low cell count flag = enough cells to score
Tdrd6 (tudor domain containing 6) | p65 translocation robust z-score = 0.44; nuclear/cytoplasmic p65 ratio, rep 1 = 1.59; nuclear/cytoplasmic p65 ratio, rep 2 = 1.24; low cell count flag = enough cells to score
Ercc2 | p65 translocation robust z-score = 0.45; nuclear/cytoplasmic p65 ratio, rep 1 = 1.58; nuclear/cytoplasmic p65 ratio, rep 2 = 1.38; low cell count flag = enough cells to score
Ptpra (protein tyrosine phosphatase receptor type A) | p65 translocation robust z-score = 1; nuclear/cytoplasmic p65 ratio, rep 1 = 1.7; nuclear/cytoplasmic p65 ratio, rep 2 = 1.48; low cell count flag = enough cells to score
Gvin1 (GTPase, very large interferon inducible 1) | p65 translocation robust z-score = 0.61; nuclear/cytoplasmic p65 ratio, rep 1 = 1.57; nuclear/cytoplasmic p65 ratio, rep 2 = 1.57; low cell count flag = enough cells to score
Hey1 (hairy/enhancer-of-split related with YRPW motif 1) | p65 translocation robust z-score = -1.59 (active); nuclear/cytoplasmic p65 ratio, rep 1 = 1.27; nuclear/cytoplasmic p65 ratio, rep 2 = 1.13; low cell count flag = enough cells to score
Vat1l (vesicle amine transport protein 1 like) | p65 translocation robust z-score = -0.81; nuclear/cytoplasmic p65 ratio, rep 1 = 1.5; nuclear/cytoplasmic p65 ratio, rep 2 = 1.54; low cell count flag = enough cells to score
Adamts16 (ADAM metallopeptidase with thrombospondin type 1 motif 16) | p65 translocation robust z-score = -0.56; nuclear/cytoplasmic p65 ratio, rep 1 = 1.58; nuclear/cytoplasmic p65 ratio, rep 2 = 1.49; low cell count flag = enough cells to score
Or9a4 (olfactory receptor family 9 subfamily A member 4) | nuclear/cytoplasmic p65 ratio, rep 1 = 1.26; nuclear/cytoplasmic p65 ratio, rep 2 = 0.915; low cell count flag = fewer than 50 cells per well; well left out of scoring
Sort1 (sortilin 1) | p65 translocation robust z-score = -0.52; nuclear/cytoplasmic p65 ratio, rep 1 = 1.36; nuclear/cytoplasmic p65 ratio, rep 2 = 1.59; low cell count flag = enough cells to score
Atp11b (ATPase, class VI, type 11B) | p65 translocation robust z-score = 0.07; nuclear/cytoplasmic p65 ratio, rep 1 = 1.66; nuclear/cytoplasmic p65 ratio, rep 2 = 1.59; low cell count flag = enough cells to score
Ucn3 (urocortin 3) | nuclear/cytoplasmic p65 ratio, rep 1 = 1.59; nuclear/cytoplasmic p65 ratio, rep 2 = 1.37; low cell count flag = fewer than 50 cells per well; well left out of scoring
Micu1 (mitochondrial calcium uptake 1) | p65 translocation robust z-score = -0.2; nuclear/cytoplasmic p65 ratio, rep 1 = 1.62; nuclear/cytoplasmic p65 ratio, rep 2 = 1.69; low cell count flag = enough cells to score
Lrrc25 (leucine rich repeat containing 25) | p65 translocation robust z-score = -0.98; nuclear/cytoplasmic p65 ratio, rep 1 = 1.53; nuclear/cytoplasmic p65 ratio, rep 2 = 1.43; low cell count flag = enough cells to score
Acvr1 (activin A receptor, type 1) | p65 translocation robust z-score = -0.4; nuclear/cytoplasmic p65 ratio, rep 1 = 1.92; nuclear/cytoplasmic p65 ratio, rep 2 = 1.33; low cell count flag = enough cells to score
Dnajc7 (DnaJ heat shock protein family (Hsp40) member C7) | p65 translocation robust z-score = 0.56; nuclear/cytoplasmic p65 ratio, rep 1 = 1.53; nuclear/cytoplasmic p65 ratio, rep 2 = 1.45; low cell count flag = enough cells to score
Ppp2r2b (protein phosphatase 2, regulatory subunit B, beta) | p65 translocation robust z-score = -0.8; nuclear/cytoplasmic p65 ratio, rep 1 = 1.44; nuclear/cytoplasmic p65 ratio, rep 2 = 1.54; low cell count flag = enough cells to score
Rab3gap2 (RAB3 GTPase activating protein subunit 2) | p65 translocation robust z-score = -0.66; nuclear/cytoplasmic p65 ratio, rep 1 = 1.44; nuclear/cytoplasmic p65 ratio, rep 2 = 1.58; low cell count flag = enough cells to score
Aoc1l3 (amine oxidase copper containing 1-like 3) | p65 translocation robust z-score = 1.61; nuclear/cytoplasmic p65 ratio, rep 1 = 1.67; nuclear/cytoplasmic p65 ratio, rep 2 = 1.38; low cell count flag = enough cells to score

4 consecutive records from above, quoted:
Or52u1 (olfactory receptor family 52 subfamily U member 1) | p65 translocation robust z-score = -1.23; nuclear/cytoplasmic p65 ratio, rep 1 = 1.27; nuclear/cytoplasmic p65 ratio, rep 2 = 1.13; low cell count flag = enough cells to score
Mkrn1 (makorin, ring finger protein, 1) | p65 translocation robust z-score = 1.05; nuclear/cytoplasmic p65 ratio, rep 1 = 1.86; nuclear/cytoplasmic p65 ratio, rep 2 = 1.83; low cell count flag = enough cells to score
Tdrd6 (tudor domain containing 6) | p65 translocation robust z-score = 0.44; nuclear/cytoplasmic p65 ratio, rep 1 = 1.59; nuclear/cytoplasmic p65 ratio, rep 2 = 1.24; low cell count flag = enough cells to score
Ercc2 | p65 translocation robust z-score = 0.45; nuclear/cytoplasmic p65 ratio, rep 1 = 1.58; nuclear/cytoplasmic p65 ratio, rep 2 = 1.38; low cell count flag = enough cells to score
